The other results are listed elsewhere or left out. The data scatter; read single values as rough.

Sequences of proteins named here, by UniProt entry; tags and fusion partners are left off. A change or cut given only in a name is not applied to a line headed by its entry. Residues count along the entry.
UniProt Q9Y4P3: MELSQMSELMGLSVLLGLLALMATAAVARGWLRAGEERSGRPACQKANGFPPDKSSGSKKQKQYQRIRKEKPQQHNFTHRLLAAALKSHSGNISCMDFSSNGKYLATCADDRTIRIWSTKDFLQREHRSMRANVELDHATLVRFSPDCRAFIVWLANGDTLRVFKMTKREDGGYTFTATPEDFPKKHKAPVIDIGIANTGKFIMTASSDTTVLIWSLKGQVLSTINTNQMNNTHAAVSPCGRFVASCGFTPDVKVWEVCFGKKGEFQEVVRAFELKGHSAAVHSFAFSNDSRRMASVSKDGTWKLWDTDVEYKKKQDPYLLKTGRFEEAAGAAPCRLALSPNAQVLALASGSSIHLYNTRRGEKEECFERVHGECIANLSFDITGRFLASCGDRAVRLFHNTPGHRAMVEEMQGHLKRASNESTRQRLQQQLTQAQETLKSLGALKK
UniProt Q9C0D5, 1630-1655: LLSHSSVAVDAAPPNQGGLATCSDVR
UniProt Q17R31, 207-226: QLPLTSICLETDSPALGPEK
UniProt O60343: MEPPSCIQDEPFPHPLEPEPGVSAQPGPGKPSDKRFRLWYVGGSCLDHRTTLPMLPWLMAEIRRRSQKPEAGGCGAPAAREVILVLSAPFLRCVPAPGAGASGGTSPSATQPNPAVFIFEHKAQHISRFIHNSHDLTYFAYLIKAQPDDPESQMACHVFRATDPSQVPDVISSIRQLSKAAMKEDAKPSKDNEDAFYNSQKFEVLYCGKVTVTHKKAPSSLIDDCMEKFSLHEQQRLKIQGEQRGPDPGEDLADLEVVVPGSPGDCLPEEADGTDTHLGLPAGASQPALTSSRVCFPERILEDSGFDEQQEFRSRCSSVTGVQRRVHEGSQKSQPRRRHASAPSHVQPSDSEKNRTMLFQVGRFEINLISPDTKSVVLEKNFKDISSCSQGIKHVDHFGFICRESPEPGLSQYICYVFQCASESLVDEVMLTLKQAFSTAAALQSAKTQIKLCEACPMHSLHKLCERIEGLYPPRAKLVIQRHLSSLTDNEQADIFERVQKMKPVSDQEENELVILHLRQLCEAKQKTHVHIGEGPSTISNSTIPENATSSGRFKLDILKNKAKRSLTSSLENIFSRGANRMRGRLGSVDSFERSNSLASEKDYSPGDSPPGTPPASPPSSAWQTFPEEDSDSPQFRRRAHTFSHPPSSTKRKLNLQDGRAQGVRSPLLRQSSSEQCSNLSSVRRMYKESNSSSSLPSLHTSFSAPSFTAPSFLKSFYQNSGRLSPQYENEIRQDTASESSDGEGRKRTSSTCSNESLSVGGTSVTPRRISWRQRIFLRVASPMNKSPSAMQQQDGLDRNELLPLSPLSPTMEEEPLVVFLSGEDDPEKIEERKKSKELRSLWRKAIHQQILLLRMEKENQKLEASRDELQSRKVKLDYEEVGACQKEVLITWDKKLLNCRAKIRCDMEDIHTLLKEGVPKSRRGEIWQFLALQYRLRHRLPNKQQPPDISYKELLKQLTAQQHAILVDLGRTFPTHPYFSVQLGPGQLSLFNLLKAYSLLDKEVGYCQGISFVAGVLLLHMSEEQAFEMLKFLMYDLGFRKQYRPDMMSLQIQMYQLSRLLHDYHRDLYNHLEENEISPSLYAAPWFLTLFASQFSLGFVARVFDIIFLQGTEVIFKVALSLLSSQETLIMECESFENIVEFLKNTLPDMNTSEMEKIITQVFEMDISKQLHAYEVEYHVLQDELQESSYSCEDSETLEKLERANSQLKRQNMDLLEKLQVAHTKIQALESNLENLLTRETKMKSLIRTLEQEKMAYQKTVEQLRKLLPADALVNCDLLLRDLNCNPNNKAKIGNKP
UniProt Q9NXG2: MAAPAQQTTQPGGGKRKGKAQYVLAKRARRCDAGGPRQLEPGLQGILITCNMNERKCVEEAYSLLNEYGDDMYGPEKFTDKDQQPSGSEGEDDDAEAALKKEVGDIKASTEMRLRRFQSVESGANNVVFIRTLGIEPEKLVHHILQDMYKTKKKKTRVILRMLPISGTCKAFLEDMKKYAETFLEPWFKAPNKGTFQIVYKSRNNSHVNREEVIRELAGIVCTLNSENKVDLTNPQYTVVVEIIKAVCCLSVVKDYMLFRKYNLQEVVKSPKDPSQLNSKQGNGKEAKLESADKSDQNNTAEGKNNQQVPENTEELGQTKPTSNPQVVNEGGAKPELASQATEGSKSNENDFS
UniProt Q7Z2Z1: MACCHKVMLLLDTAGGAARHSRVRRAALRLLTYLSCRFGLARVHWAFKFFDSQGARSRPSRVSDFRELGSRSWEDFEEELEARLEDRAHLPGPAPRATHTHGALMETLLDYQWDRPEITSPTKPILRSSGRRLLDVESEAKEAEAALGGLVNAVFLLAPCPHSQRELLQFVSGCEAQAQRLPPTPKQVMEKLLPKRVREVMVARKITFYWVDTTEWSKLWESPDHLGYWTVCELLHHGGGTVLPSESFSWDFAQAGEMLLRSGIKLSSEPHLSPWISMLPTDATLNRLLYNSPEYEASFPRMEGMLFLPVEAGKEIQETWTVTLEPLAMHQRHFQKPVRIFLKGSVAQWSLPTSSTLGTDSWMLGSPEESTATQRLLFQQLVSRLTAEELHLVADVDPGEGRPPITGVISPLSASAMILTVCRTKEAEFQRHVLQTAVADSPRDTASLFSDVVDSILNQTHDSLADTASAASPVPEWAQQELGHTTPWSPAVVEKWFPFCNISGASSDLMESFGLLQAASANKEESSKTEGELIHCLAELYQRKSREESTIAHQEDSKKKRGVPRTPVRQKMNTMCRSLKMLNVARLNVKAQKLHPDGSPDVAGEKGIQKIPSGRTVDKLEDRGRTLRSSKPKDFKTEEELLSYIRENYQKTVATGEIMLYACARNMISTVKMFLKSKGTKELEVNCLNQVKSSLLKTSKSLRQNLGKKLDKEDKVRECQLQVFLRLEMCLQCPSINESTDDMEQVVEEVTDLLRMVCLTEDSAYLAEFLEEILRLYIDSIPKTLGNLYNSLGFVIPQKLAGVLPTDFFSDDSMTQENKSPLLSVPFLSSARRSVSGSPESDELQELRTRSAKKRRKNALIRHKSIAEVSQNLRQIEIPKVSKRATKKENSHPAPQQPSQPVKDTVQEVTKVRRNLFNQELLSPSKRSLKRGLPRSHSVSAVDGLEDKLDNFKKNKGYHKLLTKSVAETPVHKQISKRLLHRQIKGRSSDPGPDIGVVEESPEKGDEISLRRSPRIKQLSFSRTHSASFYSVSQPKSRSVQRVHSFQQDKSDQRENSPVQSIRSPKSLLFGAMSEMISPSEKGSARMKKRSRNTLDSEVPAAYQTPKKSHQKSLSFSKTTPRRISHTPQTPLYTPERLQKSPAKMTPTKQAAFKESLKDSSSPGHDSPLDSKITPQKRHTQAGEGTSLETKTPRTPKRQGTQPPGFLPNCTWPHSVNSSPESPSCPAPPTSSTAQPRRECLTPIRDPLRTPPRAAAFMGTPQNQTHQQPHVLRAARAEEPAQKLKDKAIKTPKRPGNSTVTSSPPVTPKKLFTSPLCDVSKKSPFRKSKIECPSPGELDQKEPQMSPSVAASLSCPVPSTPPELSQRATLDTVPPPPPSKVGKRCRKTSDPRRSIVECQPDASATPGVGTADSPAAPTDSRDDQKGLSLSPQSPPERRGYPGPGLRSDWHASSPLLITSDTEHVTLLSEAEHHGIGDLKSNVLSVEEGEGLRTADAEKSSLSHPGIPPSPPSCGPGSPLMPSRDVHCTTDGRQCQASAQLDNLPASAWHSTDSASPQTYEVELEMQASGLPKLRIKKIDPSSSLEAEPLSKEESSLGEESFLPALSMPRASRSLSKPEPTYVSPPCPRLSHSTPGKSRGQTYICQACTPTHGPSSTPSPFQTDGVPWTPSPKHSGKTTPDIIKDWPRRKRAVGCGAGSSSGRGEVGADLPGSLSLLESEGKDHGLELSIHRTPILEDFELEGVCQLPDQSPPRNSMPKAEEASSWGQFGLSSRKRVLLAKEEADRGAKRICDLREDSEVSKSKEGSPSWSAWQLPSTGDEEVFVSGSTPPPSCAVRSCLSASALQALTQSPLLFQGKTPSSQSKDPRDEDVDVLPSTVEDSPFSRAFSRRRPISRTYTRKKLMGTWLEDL
UniProt Q12800: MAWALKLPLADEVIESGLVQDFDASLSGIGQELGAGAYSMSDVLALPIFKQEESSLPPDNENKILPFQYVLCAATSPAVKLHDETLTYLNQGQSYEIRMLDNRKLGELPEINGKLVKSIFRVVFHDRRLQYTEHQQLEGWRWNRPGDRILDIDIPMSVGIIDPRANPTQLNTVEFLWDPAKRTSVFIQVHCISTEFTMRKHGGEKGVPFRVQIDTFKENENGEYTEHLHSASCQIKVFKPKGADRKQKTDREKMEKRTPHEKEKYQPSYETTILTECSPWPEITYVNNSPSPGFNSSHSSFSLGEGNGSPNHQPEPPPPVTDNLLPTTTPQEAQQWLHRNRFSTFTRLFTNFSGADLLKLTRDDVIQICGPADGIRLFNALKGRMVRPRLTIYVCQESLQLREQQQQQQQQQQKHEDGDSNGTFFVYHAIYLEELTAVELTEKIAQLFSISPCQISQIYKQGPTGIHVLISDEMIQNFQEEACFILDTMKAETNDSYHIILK
UniProt Q9NQ88: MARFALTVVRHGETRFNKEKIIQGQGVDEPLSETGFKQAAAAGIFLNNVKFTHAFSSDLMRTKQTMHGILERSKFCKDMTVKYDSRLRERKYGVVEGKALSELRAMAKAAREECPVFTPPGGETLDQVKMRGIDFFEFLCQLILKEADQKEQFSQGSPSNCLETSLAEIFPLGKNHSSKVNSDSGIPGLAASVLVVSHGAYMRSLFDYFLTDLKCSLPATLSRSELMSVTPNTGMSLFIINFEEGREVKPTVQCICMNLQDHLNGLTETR
UniProt P42680: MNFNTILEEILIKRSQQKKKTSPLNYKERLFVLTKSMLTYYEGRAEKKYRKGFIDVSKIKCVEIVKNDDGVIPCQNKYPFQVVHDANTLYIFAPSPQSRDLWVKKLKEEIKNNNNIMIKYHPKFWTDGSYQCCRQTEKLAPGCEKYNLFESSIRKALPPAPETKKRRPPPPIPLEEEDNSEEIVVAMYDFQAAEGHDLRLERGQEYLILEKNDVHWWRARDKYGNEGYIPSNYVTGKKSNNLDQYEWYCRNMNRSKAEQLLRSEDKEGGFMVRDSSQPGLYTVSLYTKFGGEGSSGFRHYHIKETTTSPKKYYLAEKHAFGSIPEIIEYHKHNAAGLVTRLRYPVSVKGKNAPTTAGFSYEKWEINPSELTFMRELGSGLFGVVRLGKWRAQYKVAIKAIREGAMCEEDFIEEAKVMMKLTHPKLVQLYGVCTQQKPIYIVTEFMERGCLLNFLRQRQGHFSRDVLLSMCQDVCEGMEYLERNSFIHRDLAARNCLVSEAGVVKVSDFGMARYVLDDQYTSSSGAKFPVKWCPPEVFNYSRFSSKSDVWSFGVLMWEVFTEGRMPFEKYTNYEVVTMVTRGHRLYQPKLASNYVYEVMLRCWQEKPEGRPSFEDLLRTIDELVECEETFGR
UniProt Q15572: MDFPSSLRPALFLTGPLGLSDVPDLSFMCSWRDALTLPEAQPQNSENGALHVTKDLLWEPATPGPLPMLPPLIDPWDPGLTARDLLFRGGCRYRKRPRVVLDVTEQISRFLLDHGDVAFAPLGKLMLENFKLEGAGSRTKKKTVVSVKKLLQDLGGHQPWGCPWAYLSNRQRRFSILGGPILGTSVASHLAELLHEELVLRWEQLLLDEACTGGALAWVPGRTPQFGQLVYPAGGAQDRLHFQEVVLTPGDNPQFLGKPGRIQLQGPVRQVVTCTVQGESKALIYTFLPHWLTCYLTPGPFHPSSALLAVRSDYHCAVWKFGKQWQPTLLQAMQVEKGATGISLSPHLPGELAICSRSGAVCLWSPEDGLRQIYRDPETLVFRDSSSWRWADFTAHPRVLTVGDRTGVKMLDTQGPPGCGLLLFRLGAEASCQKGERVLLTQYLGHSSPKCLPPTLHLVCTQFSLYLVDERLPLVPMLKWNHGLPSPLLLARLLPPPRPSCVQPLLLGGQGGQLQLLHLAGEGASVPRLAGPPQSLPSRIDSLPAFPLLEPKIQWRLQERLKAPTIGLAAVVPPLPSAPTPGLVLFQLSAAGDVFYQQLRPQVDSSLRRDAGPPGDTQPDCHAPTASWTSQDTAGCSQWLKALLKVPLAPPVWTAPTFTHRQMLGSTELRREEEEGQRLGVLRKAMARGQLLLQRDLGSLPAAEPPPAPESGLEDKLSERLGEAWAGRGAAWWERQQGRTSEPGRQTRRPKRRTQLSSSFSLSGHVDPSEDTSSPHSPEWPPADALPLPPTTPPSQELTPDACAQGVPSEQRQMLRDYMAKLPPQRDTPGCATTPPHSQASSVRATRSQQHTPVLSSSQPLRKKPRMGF

Compound in one assay: ClCC(=O)N[C@@H]1CCCc2ccccc12
Kind of assay: log2 mean competition ratio of IA-DTB cysteine labelling (DMSO/compound) (log2 ratio); higher = stronger cysteine engagement by compound. Particulars: 50 µM; treatment time: 4 h; cell line lysate: HEK293T. Here is the method:
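IA-DTB competitive cysteine chemoproteomics in HEK293T RIPA lysate. Lysates were treated with compound 29 or 30 at 50 or 200 µM for 4 h, then IA-DTB (500 µM, 1 h), trypsin-digested, NeutrAvidin-enriched and analysed by diaPASEF. Competition ratio = intensity DMSO / intensity compound (n=4 treated, n=64 DMSO); binding: mean log2 CR ≥ 1 and p ≤ 0.05 plus QC filters. Target is the cysteine site.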
Regarding TES C46 (UniProt Q9UGI8), the “log2 mean competition ratio” value was -0.083.
Still for that read-out and setting: then TBL2 C247 (UniProt Q9Y4P3), with 0.509; and TANC1 C1808 (UniProt Q9C0D5), with -0.133.
With TATDN3 C214 (UniProt Q17R31), the “log2 mean competition ratio” value is -0.635.
On the same count and under the same terms, for TBC1D4 C1286 (UniProt O60343) the value was -0.1; for THUMPD1 C222 (UniProt Q9NXG2), -0.881; for TANC2 C507 (UniProt Q9HCD6), -0.0092.
On the same count and under the same terms, then TBC1D10A C324 (UniProt Q9BXI6), with 0.465; and TICRR C1694 (UniProt Q7Z2Z1), with 0.142.
On to TFCP2 C369 (UniProt Q12800), for which the “log2 mean competition ratio” value came out at 0.0615.
The same measure, in the same setting: then TIGAR C114 (UniProt Q9NQ88), with -0.253.
In the case of TARBP1 C443 (UniProt Q13395), the “log2 mean competition ratio” value was determined as 0.0236.
In the case of TBC1D4 C906 (UniProt O60343), the “log2 mean competition ratio” value is -0.172.
Regarding TANC1 C1651 (UniProt Q9C0D5), the “log2 mean competition ratio” value stood at 0.335.
Take TCF20 C868 (UniProt Q9UGU0): the “log2 mean competition ratio” value is -0.128.
On the same count and under the same terms, for TEC C495 (UniProt P42680) the value was -0.0891.
As to TGM2 C230, the “log2 mean competition ratio” value is -0.119.
Same read-out and setting: for TBP C262 (UniProt P20226) the value was 0.241; for TET2 C784 (UniProt Q6N021), -0.0961.
Same read-out and setting: for TAF1C C831 (UniProt Q15572) the value was 0.237.

The assay is the same for the next values; noted with them: 200 µM; treatment time: 4 h; cell line lysate: HEK293T.
As for TES C46 (UniProt Q9UGI8), the “log2 mean competition ratio” value is -0.0686.
TBL2 C247 (UniProt Q9Y4P3): the “log2 mean competition ratio” value was 0.289.
Same read-out and setting: for TANC1 C1808 (UniProt Q9C0D5) the value was -0.0391; for TATDN3 C214 (UniProt Q17R31), 0.815.
On the same count and under the same terms, then TBC1D4 C1286 (UniProt O60343), with 0.165.
On the same count and under the same terms, for THUMPD1 C222 (UniProt Q9NXG2) the value was -0.194; for TANC2 C507 (UniProt Q9HCD6), -0.0625.
Turning to TBC1D10A C324 (UniProt Q9BXI6), the “log2 mean competition ratio” value was determined as 0.333.
On the same count and under the same terms, then TICRR C1694 (UniProt Q7Z2Z1), with 0.236.
On the same count and under the same terms, for TFCP2 C369 (UniProt Q12800) the value was -0.0803; for TIGAR C114 (UniProt Q9NQ88), -0.0803.
Same read-out and setting: then TARBP1 C443 (UniProt Q13395), with -0.0285; and TBC1D4 C906 (UniProt O60343), with 0.0612; and TANC1 C1651 (UniProt Q9C0D5), with -0.199.
Turning to TCF20 C868 (UniProt Q9UGU0), the “log2 mean competition ratio” value is 0.154.
On the same count and under the same terms, then TEC C495 (UniProt P42680), with 0.153; and TGM2 C230, with -0.393.
On to TBP C262 (UniProt P20226), for which the “log2 mean competition ratio” value came to 0.0323.
Same read-out and setting: then TET2 C784 (UniProt Q6N021), with -0.0276; and TAF1C C831 (UniProt Q15572), with -0.0162.

The values are drawn from the supplement of paper PMC11732987, “Enantioselective OTUD7B fragment discovery through chemoproteomics screening and high-throughput optimisation” (Communications Chemistry, 2025).
